# ± gives the standard deviation. Only a part is listed here, and it is no random draw. The uncertainty is large for many entries. Some of the results follow.
# Tests used:
# [1] = test system: MILI (PIWIL2) piRISC loaded with L1MC piRNA (26 nt); test: pre-steady-state target cleavage rate (min^-1); higher = faster piRNA-guided slicing of the target; details: guide: L1MC piRNA 5'p-UAACUAAAUACUAUGCAAGCUGUAGG
# Procedure, shortened: (§1)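 A burst-and-steady-state fit was used to obtain the pre-steady-state cleavage rate. The input data were sequencing reads of uncleaved targets, normalised to depth and to weakly complementary targets, from a […] transcribed, DNA-blocked target RNA library mixed with 1 nM active affinity-purified piRISC holding one synthetic guide, with or without 500 nM GTSF1 partner protein, in HEPES–potassium acetate buffer at 33 °C for 0–8 or 0–960 min. Three trials were pooled and k3 was capped at 0.0001 min^-1.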
# [2] = test system: MIWI (PIWIL1) piRISC loaded with L1MC piRNA (30 nt); test: as above; details: guide: L1MC piRNA 5'p-UAACUAAAUACUAUGCAAGCUGUAGGUCCU
# Procedure, shortened: as §1
# [3] = test system: EfPiwi piRISC loaded with L1MC piRNA (26 nt); test: pre-steady-state target cleavage rate (min^-1); guide: L1MC piRNA 5'p-UAACUAAAUACUAUGCAAGCUGUAGG; MIWI and MILI are mouse PIWI proteins and EfPiwi is from a freshwater sponge; tags in brackets are library labels; higher = faster piRNA-guided slicing of the target; details: auxiliary factor: 500 nM Ephydatia muelleri Gtsf1
# Procedure, shortened: as §1
# [4] = auxiliary factor: 500 nM mouse GTSF1
# [5] = auxiliary factor: none (no GTSF1)
sequence,measurement,setting,value
UCCUGCUUCAGCUAGCAUAGUAUUUAGUUA,pre-steady-state target cleavage rate,[1]; [4],0.322 ± 0.02
same,pre-steady-state target cleavage rate,[1]; [5],0.00715 ± 0.0018
same,pre-steady-state target cleavage rate,[2]; [4],1.32 ± 0.056
same,pre-steady-state target cleavage rate,[2]; [5],0.0109 ± 0.0042
same,pre-steady-state target cleavage rate,[3],0.0566 ± 0.015
UCCUGGAUGAGCUUGCAUAGUAAUUACAAA,pre-steady-state target cleavage rate,[1]; [4],0.00275 ± 0.0058
same,pre-steady-state target cleavage rate,[1]; [5],0.000684 ± 0.0097
same,pre-steady-state target cleavage rate,[2]; [4],0.00149 ± 0.0088
same,pre-steady-state target cleavage rate,[2]; [5],0.00125 ± 0.0056
same,pre-steady-state target cleavage rate,[3],0.00446 ± 0.0034
UCCUGGAUGUCCUUGCAUAGUACUUUAGUUA,pre-steady-state target cleavage rate,[1]; [4],0.0282 ± 0.011
same,pre-steady-state target cleavage rate,[1]; [5],0.00534 ± 0.0022
same,pre-steady-state target cleavage rate,[2]; [4],0.00373 ± 0.0043
same,pre-steady-state target cleavage rate,[2]; [5],0.00199 ± 0.0039
same,pre-steady-state target cleavage rate,[3],0.00138 ± 0.0032
UCCUGGAUGUGCUUGCAUAGUUAUUAGUAA,pre-steady-state target cleavage rate,[1]; [4],0.00196 ± 0.0044
same,pre-steady-state target cleavage rate,[1]; [5],0.00158 ± 0.0053
same,pre-steady-state target cleavage rate,[2]; [4],0.00129 ± 0.0066
same,pre-steady-state target cleavage rate,[2]; [5],0.00126 ± 0.0034
same,pre-steady-state target cleavage rate,[3],0.000336 ± 0.013
UCCUGCUACAGCUUGCAUAUUAUUUAGUUA,pre-steady-state target cleavage rate,[1]; [4],0.11 ± 0.016
same,pre-steady-state target cleavage rate,[1]; [5],0.00413 ± 0.0024
same,pre-steady-state target cleavage rate,[2]; [4],1.31 ± 0.066
same,pre-steady-state target cleavage rate,[2]; [5],0.0449 ± 0.0088
same,pre-steady-state target cleavage rate,[3],0.0119 ± 0.0034
UCCUGGAUGUCCUAGCUUAGUAUUUAGUUA,pre-steady-state target cleavage rate,[1]; [4],0.0102 ± 0.0041
same,pre-steady-state target cleavage rate,[1]; [5],0.00159 ± 0.0037
same,pre-steady-state target cleavage rate,[2]; [4],0.00336 ± 0.0044
same,pre-steady-state target cleavage rate,[2]; [5],0.000843 ± 0.0073
same,pre-steady-state target cleavage rate,[3],0.000376 ± 0.0098
UCCUGGAUGAGCUUCCAUAGUUUUUAGUUA,pre-steady-state target cleavage rate,[1]; [4],0.00464 ± 0.005
same,pre-steady-state target cleavage rate,[1]; [5],0.000705 ± 0.0088
same,pre-steady-state target cleavage rate,[2]; [4],0.00391 ± 0.0066
same,pre-steady-state target cleavage rate,[2]; [5],0.000895 ± 0.0089
same,pre-steady-state target cleavage rate,[3],0.00024 ± 0.033
UCCUGCUACAGCUUGGUAAGUAUUUUCAAA,pre-steady-state target cleavage rate,[1]; [4],0.00231 ± 0.0057
same,pre-steady-state target cleavage rate,[1]; [5],0.000773 ± 0.0078
same,pre-steady-state target cleavage rate,[2]; [4],0.00154 ± 0.008
same,pre-steady-state target cleavage rate,[2]; [5],0.000452 ± 0.013
same,pre-steady-state target cleavage rate,[3],0.00122 ± 0.0057
UCCUGGAUGUGCUUGCUAAGUAUUUAGAAA,pre-steady-state target cleavage rate,[1]; [4],0.00225 ± 0.0049
same,pre-steady-state target cleavage rate,[1]; [5],0.000909 ± 0.0058
same,pre-steady-state target cleavage rate,[2]; [4],0.00149 ± 0.0079
same,pre-steady-state target cleavage rate,[2]; [5],0.00107 ± 0.0077
same,pre-steady-state target cleavage rate,[3],0.000274 ± 0.017
UCCUGGAUGAGCUUGCAUAGAUUUAGUUA,pre-steady-state target cleavage rate,[1]; [4],0.00162 ± 0.0074
same,pre-steady-state target cleavage rate,[1]; [5],0.00152 ± 0.0037
same,pre-steady-state target cleavage rate,[2]; [4],0.00199 ± 0.0078
same,pre-steady-state target cleavage rate,[2]; [5],0.00192 ± 0.0039
same,pre-steady-state target cleavage rate,[3],0.000783 ± 0.0046
UCCUCCUCACAGCUUGCAUAGUAUUUAGUUA,pre-steady-state target cleavage rate,[1]; [4],0.369 ± 0.021
same,pre-steady-state target cleavage rate,[1]; [5],0.0102 ± 0.0027
same,pre-steady-state target cleavage rate,[2]; [4],1.49 ± 0.064
same,pre-steady-state target cleavage rate,[2]; [5],0.0662 ± 0.014
same,pre-steady-state target cleavage rate,[3],0.191 ± 0.046
UCCUGCCACAGCUUGCAUAGUAUUUAGUUA,pre-steady-state target cleavage rate,[1]; [4],0.331 ± 0.025
same,pre-steady-state target cleavage rate,[1]; [5],0.0105 ± 0.003
same,pre-steady-state target cleavage rate,[2]; [4],1.2 ± 0.051
same,pre-steady-state target cleavage rate,[2]; [5],0.0769 ± 0.013
same,pre-steady-state target cleavage rate,[3],0.0631 ± 0.017
UCCUGGAUGUGCUUGCAUACGUAUUUAGUUA,pre-steady-state target cleavage rate,[1]; [4],0.00141 ± 0.0086
same,pre-steady-state target cleavage rate,[1]; [5],0.00177 ± 0.0051
same,pre-steady-state target cleavage rate,[2]; [4],0.000957 ± 0.012
same,pre-steady-state target cleavage rate,[2]; [5],0.000969 ± 0.0094
same,pre-steady-state target cleavage rate,[3],0.000784 ± 0.0055
UCCUGGAUGUCGAUGCAUAGUUUUUAGAUA,pre-steady-state target cleavage rate,[1]; [4],0.000872 ± 0.011
same,pre-steady-state target cleavage rate,[1]; [5],0.00105 ± 0.005
same,pre-steady-state target cleavage rate,[2]; [4],0.000382 ± 0.025
same,pre-steady-state target cleavage rate,[2]; [5],0.000578 ± 0.0088
same,pre-steady-state target cleavage rate,[3],0.00127 ± 0.006
UCCUGGAUGUCGAAGCAAUAGUAUUUAGUUA,pre-steady-state target cleavage rate,[1]; [4],0.00151 ± 0.0067
same,pre-steady-state target cleavage rate,[1]; [5],0.000393 ± 0.011
same,pre-steady-state target cleavage rate,[2]; [4],0.000189 ± 0.048
same,pre-steady-state target cleavage rate,[2]; [5],0.000706 ± 0.0074
same,pre-steady-state target cleavage rate,[3],0.000881 ± 0.0088
UCCUGGAUGAGCUUGCAUAGUUAAUAGUAA,pre-steady-state target cleavage rate,[1]; [4],0.00132 ± 0.0072
same,pre-steady-state target cleavage rate,[1]; [5],0.00115 ± 0.0063
same,pre-steady-state target cleavage rate,[2]; [4],0.00195 ± 0.0053
same,pre-steady-state target cleavage rate,[2]; [5],0.0014 ± 0.0053
same,pre-steady-state target cleavage rate,[3],0.000306 ± 0.018
UCCUGGAUCAGCUUGCAUUAGUAUUUAGUUA,pre-steady-state target cleavage rate,[1]; [4],0.00236 ± 0.0054
same,pre-steady-state target cleavage rate,[1]; [5],0.00151 ± 0.0043
same,pre-steady-state target cleavage rate,[2]; [4],0.00214 ± 0.006
same,pre-steady-state target cleavage rate,[2]; [5],0.00204 ± 0.0042
same,pre-steady-state target cleavage rate,[3],0.000328 ± 0.017
UCCUGCUACAGCUUGCAUAGUAUAUUGUUA,pre-steady-state target cleavage rate,[1]; [4],0.187 ± 0.036
same,pre-steady-state target cleavage rate,[1]; [5],0.00238 ± 0.0039
same,pre-steady-state target cleavage rate,[2]; [4],0.377 ± 0.037
same,pre-steady-state target cleavage rate,[2]; [5],0.0123 ± 0.0026
same,pre-steady-state target cleavage rate,[3],0.00351 ± 0.0021

# 4 entries picked at random from those above, as already listed:
sequence,measurement,setting,value
UCCUGGAUGAGCUUGCAUAGUAAUUACAAA,pre-steady-state target cleavage rate,[1]; [5],0.000684 ± 0.0097
UCCUGGAUCAGCUUGCAUUAGUAUUUAGUUA,pre-steady-state target cleavage rate,[3],0.000328 ± 0.017
UCCUGGAUGUCCUUGCAUAGUACUUUAGUUA,pre-steady-state target cleavage rate,[3],0.00138 ± 0.0032
UCCUGGAUGUGCUUGCAUACGUAUUUAGUUA,pre-steady-state target cleavage rate,[1]; [4],0.00141 ± 0.0086

# — the supplement of paper PMC10338343
